{"source": "patent US20230398106A1", "about": "“COMBINATION THERAPY OF DONEPEZIL AND SILDENAFIL FOR THE TREATMENT OF ALZHEIMER'S DISEASE OR COGNITIVE IMPAIRMENT” (NEURORIVE INC, priority 2020, published 2023)", "test_system": "mouse brain slice treated with 3 μM amyloid beta (Aβ)", "settings": "Amyloid beta 3 μM; Donepezil 100 nM single treatment"}
{"smiles": "COc1cc2c(cc1OC)C(=O)C(CC1CCN(Cc3ccccc3)CC1)C2", "note": "(stereo not shown) [Donepezil, donepezil]", "values": [{"measurement": "Synaptic long-term potentiation (Increase or decrease compared to Amyloid beta group)", "value": 9.18, "unit": "%"}]}
